# Among all 78,000 compounds or so, about 1,800 (2.3%) were called active. This list was built around the results that the source calls inconclusive (neither active nor inactive); the mix of calls is not that of the screen. Rule as the data show it: active = inhibition above about 30%; inconclusive = mostly about 10% to 28%; inactive = weaker than that.
# The chains behind the UniProt entries cited, without tags or fusion partners. Where a name states a change or a piece, a line headed by the entry shows the natural chain unless it says otherwise.
# UniProt Q01638: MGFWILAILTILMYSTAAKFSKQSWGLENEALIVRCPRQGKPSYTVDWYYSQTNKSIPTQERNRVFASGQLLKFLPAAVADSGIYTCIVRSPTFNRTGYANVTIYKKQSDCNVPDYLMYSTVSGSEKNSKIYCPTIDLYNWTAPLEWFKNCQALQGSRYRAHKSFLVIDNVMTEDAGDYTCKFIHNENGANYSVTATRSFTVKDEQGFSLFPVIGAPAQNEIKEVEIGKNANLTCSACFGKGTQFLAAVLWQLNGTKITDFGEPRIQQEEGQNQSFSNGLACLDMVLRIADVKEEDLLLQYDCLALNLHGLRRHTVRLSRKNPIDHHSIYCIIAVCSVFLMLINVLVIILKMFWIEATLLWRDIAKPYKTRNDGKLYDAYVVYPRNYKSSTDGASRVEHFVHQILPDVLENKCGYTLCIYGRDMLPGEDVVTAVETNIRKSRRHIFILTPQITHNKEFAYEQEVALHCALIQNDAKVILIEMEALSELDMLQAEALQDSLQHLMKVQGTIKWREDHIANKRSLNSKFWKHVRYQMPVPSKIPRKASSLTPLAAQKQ
# Target: Interleukin-1 receptor-like 1 (Homo sapiens) (UniProt Q01638)
# Assay: blocks human ST2 binding to IL-33, primary screen, biochemical, AlphaLISA (AID 1259354)
# Conditions: AlphaLISA ST2-Fc/biotin-IL-33 interaction, 1 h; at 17 µM, active compounds read high
row,SMILES,inhibition
1,CC(=O)N[C@@H](Cc1cnc[nH]1)C(=O)N1CCC(CO)(Cc2ccccc2)CC1,inactive
2,Cc1cc(-c2ccc(NC(=O)c3ccccc3F)c(C)c2)ccc1NC(=O)c1ccccc1F,inconclusive: 17%
3,Cc1ccc(C(=O)C(C)Sc2nc3ccccc3o2)cc1 (configuration not stated),inactive
4,CC(C)(C)n1cnc2cc(NCc3ccc(Br)cc3)ccc21,inconclusive: 15%
5,Cc1nnnn1CCCN1CCOC(c2ccc(Cl)c(Cl)c2)C1 (configuration not stated),inactive
6,O=C(CC(Cc1ccc(Cl)cc1)C(=O)O)Nc1ccc([N+](=O)[O-])cc1 (configuration not stated),inconclusive: 11%
7,O=[N+]([O-])c1cccc(-c2noc([C@@H]3C[C@@H](O)CN3Cc3cccc(OC(F)(F)F)c3)n2)c1,inconclusive: 12%
8,Oc1oc(-c2ccccc2)nc1C=Nc1ccc(Br)cn1,inactive
9,Cc1nc2cc(C(=O)NCCS(=O)(=O)N(C)C)ccc2s1,inconclusive: 13%
10,Cc1ccc(CS(=O)(=O)NCc2cnn3ccccc23)cc1,inactive
11,COc1ccc(C(=O)C2CCCN(C(=O)c3cccc(-c4ccccc4)c3)C2)cc1OC (configuration not stated),inactive
12,Cc1n[nH]c(C)c1S(=O)(=O)N1CCN(C)CC1,inactive
13,Cc1cc(N2CCCCC2)nc2ccc(NC(=O)CCC(=O)NC3CCCCCC3)cc12,inactive
14,O=C(Nc1cccc(NC(=O)c2ccccc2F)c1)c1cccs1,inconclusive: 11%
15,CO[C@H]1[C@H](NC(=O)CSC)c2ccccc2C12CCN(Cc1ccc3cccc(F)c3n1)CC2,inconclusive: 10%
16,CC(C)CCN(C)C1CCN(S(=O)(=O)c2cccc(Cl)c2)CC1,inconclusive: 10%
17,COc1ccc(NC(=O)CN2C(=O)C3(OCCCO3)c3ccccc32)c(OC)c1,inactive
18,CCN(CCCNC(=O)c1cc2cc3ccc(OC)cc3nc2o1)Cc1ccccc1,inconclusive: 17%
19,Cc1ccc(S(=O)(=O)c2nc(-c3ccc(F)cc3)oc2N2CCOCC2)cc1,inconclusive: 15%
20,CCCN1C(=O)/C(=C2\SC(N)=NC2=O)c2cc(Br)ccc21,active: 33%
21,CN1C(=O)CC(CC(=O)N2CCCC2c2ccc(F)cc2)(c2ccc(-c3ccccc3)cc2)C1=O (configuration not stated),inconclusive: 14%
22,COc1ccc(C(=O)N2CCC(C(=O)O)CC2)cc1S(=O)(=O)N1CCC(C)CC1,inconclusive: 14%
23,NS(=O)(=O)c1ccc(CCNC(=O)c2cc(-c3cccs3)nc3ccccc23)cc1,inconclusive: 13%
24,O=C(CNS(=O)(=O)c1ccc(Br)s1)N1CCCC1,inactive

# Grouped by structure: the compounds so far with an NH in an aromatic ring (two)
row,SMILES,inhibition
1,CC(=O)N[C@@H](Cc1cnc[nH]1)C(=O)N1CCC(CO)(Cc2ccccc2)CC1,inactive
12,Cc1n[nH]c(C)c1S(=O)(=O)N1CCN(C)CC1,inactive

# Three structures already listed, arranged by formula weight, low to high.
row,SMILES,inhibition
12,Cc1n[nH]c(C)c1S(=O)(=O)N1CCN(C)CC1,inactive
14,O=C(Nc1cccc(NC(=O)c2ccccc2F)c1)c1cccs1,inconclusive: 11%
2,Cc1cc(-c2ccc(NC(=O)c3ccccc3F)c(C)c2)ccc1NC(=O)c1ccccc1F,inconclusive: 17%

# Additional results follow:

row,SMILES,inhibition
1,Cc1ccc(-c2nc(CN3CCc4[nH]ncc4C3)c(C)o2)s1,inconclusive: 13%
2,CC(C(=O)Nc1ccc(F)cc1)N1C(=O)c2ccccc2C1=O (configuration not stated),inactive
3,O=C(c1ccc(CC2CCCNC2)cc1)N1CCC(Nc2ccccn2)CC1 (configuration not stated),inconclusive: 17%
4,COc1ccc(Nc2cc(C)nc(N3CCN(S(=O)(=O)c4cccc(F)c4)CC3)n2)cc1,inconclusive: 16%
5,COc1ccc(NC(=O)C2CCN(c3ccc(-c4ccc(Br)s4)nn3)CC2)cc1OC,inconclusive: 19%
6,O=C(C[C@@H]1CCNC[C@@H]1Cc1cc(-c2ccccc2)on1)NC1CC1,inconclusive: 11%
7,CN1CCN(C2Cc3ccccc3Sc3ccc(Cl)cc32)CC1 (configuration not stated),inconclusive: 16%
8,Cc1cc(Cl)ccc1NC(=O)C1CCN(C(=O)c2ccccc2C)CC1,inconclusive: 10%
9,COc1cc(NS(=O)(=O)c2ccccc2)c2ncccc2c1,inconclusive: 25%
10,CCNC(=O)N[C@H]1C[C@@H](c2nc(-c3ccccc3)no2)N(C)C1,inactive
11,COC(=O)C1CCN(C(=O)c2cc3c(=O)n4ccccc4nc3n2C)CC1,inactive
12,Cc1cc(C)n2c(-c3ccccc3C)nnc2n1,inactive
13,O=C(NC1(c2ccccc2)CC1)c1cc(COc2cccc3cccnc23)on1,inconclusive: 10%
14,Cc1ccc(C2(O)CCN(C(=O)c3ccc4nc[nH]c4c3)CC2)nc1,inactive
15,Cc1ccsc1[C@@H]1CCN(Cc2ccnc(C(C)C)n2)C[C@H]1O,inactive
16,NCCc1cnc[nH]1,inconclusive: 19%
17,C[C@@H]1O[C@@H](O[C@@H]2[C@@H](O[C@@H]3O[C@@H](C)[C@H](O)[C@@H](O)[C@H]3O)[C@H](OCCc3ccc(O)c(O)c3)O[C@H](CO)[C@H]2OC(=O)/C=C/c2ccc(O)c(O)c2)[C@H](O)[C@H](O)[C@H]1O,inconclusive: 27%
18,N/C(=N/OC(=O)c1ccc(Br)o1)c1cccnc1,inconclusive: 22%
19,Fc1ccc(-c2cn3nc4c(nc3n2)CCCC4)cc1,inconclusive: 18%
20,CC(=O)NC1=NN(C(C)=O)C(c2ccc(OCc3ccccc3)cc2)S1 (configuration not stated),inactive
21,Cc1csc(NC(=O)CCc2c(C)nc3c(-c4ccc(F)cc4)c(C)nn3c2C)n1,inconclusive: 28%
22,COC(=O)C1Cc2nc[nH]c2CN1C(=O)c1oc2cc(OC)ccc2c1C (configuration not stated),inconclusive: 13%
23,O=C1C2CCCN2C(c2ccc(Br)cc2)N1c1nccs1 (configuration not stated),inconclusive: 15%

# — PubChem BioAssay AID1259354 (Paczesny and Yang Labs, IUPUI and University of Michigan, 2018)
